PubChem BioAssay AID652054 (National Center for Advancing Translational Sciences (NCATS), 2013)
Out of some 360,000 compounds screened, about 9,100 (2.5%) were called active. This list was built around the results that the source calls inconclusive (neither active nor inactive); the mix of calls is not that of the screen. Rule as the data show it: active = max response below about -50%; inconclusive = no clear call, values can overlap the other calls; inactive = above that.

By UniProt entry, the sequences of proteins in these tests, tags left out.
UniProt P35462, whole entry, looked up: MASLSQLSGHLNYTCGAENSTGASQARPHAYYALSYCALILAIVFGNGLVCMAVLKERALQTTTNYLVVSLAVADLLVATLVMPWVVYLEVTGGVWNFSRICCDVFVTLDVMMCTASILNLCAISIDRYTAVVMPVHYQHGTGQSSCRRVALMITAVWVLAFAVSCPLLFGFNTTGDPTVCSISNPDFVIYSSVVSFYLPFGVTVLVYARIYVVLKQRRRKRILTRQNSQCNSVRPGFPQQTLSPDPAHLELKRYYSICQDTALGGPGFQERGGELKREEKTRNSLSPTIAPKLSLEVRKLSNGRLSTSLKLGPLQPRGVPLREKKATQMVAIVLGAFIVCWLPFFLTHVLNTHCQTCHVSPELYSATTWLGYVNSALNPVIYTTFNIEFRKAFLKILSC

Biological target: D(3) dopamine receptor (Homo sapiens) (UniProt P35462)
Experiment: qHTS of D3 Dopamine Receptor Antagonist: qHTS
Conditions: D3R cells, DiscoveRx beta-arrestin luminescence, antagonist mode; stronger effect = lower value
Outline: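 Cells expressing the human receptor were seeded at 1500 cells/well, incubated overnight at 37 degrees C in 5% CO2, then exposed to library compounds with dopamine controls for 90 minutes at 37 degrees C before luminescent detection.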
% is scaled to controls: 0 for no effect and ±100 for the full control effect.

Max response, negative = inhibition, active:
CN1CCN(c2nc(-c3ccccc3)cc(C(F)(F)F)n2)CC1 -69.7%
O=C(CSC(=S)N1CCCCC1)Nc1nc(-c2ccccc2)c(-c2ccccc2)o1 -51.8%
CN(c1ccccc1)S(=O)(=O)c1ccc(NC(=O)c2nc(S(C)(=O)=O)ncc2Cl)cc1 -108%
Cn1cc(CN2CCC(C(=O)NC(c3ccc(F)cc3)c3ccc4ccccc4n3)CC2)c2ccccc21 (centres undefined) -58%
COc1ccc(Cl)cc1Cn1c(C)c(C(=O)NCc2ccc(C#N)cc2)sc1=O -50.3%
COc1ccc(OCCN2CCC(C(=O)NC(c3ccc(C)cc3)c3ccccn3)CC2)cc1 (centres undefined) -73.7%
O=[N+]([O-])c1ccc(/C=N/n2c(COc3ccccc3)n[nH]c2=S)cc1 -89.7%
CC1(C)Cc2c(sc(NC(=O)c3ccc(C(=O)c4ccccc4)cc3)c2C(N)=O)C(C)(C)N1 -50.2%
CCN(CC)CCn1c(NC(=O)c2ccc(C(F)(F)F)cc2)nc2ccccc21 -54.2%
COc1cc(C(=O)NCC(c2cccs2)N(C)C)cc(Cl)c1OC(C)C (centres undefined) -76.1%
NS(=O)(=O)c1ccc(NNC(=O)c2ccc(Br)o2)c([N+](=O)[O-])c1 -64.9%
CCOC(=O)c1sc(NS(=O)(=O)c2ccccc2Cl)nc1C -70%
O=C(Nc1c(-c2ccc3c(c2)OCO3)[nH][nH]c1=O)c1ccc2c(c1)OCO2 -77.7%
Cc1ccccc1CN1CCC(n2nccc2NC(=O)CCCc2ccccc2)CC1 -80.5%
CCc1ccc(NC(=O)N(CCCN2CCOCC2)C(C)c2cc3cccc(OC)c3o2)cc1 (centres undefined) -53.1%
Cc1ccc(S(=O)(=O)NCc2ccc(C(=O)NCCN(Cc3ccccc3)C(C)C)cc2)cc1 -78.7%

Max response, negative = inhibition, inactive:
CCC(=O)N/C(N)=N/c1nc2ccccc2o1 14.4%
COC(=O)[C@H]1CCCN1C(=O)Nc1cccc(Oc2c(F)c(F)c(F)c(F)c2F)c1 -21%
CCOC(=O)c1cc(-c2ccc(OC)cc2)nc2c1c(C)nn2CCC(N)=S -15.1%
COc1ccc(-c2csc3nc(C)nc(N4CCN(C(C)=O)CC4)c23)cc1OC 6.83%
O=C(Nc1cccnc1)c1ccc(COc2ccccc2Br)o1 5.3%
COc1ccccc1CCNC(=O)C1CC(=O)N(c2ccccc2F)C1 (centres undefined) 20.4%
N#CC1(NC(=O)COc2ccc3ccc(=O)oc3c2)CCCCC1 3.96%
CCCCN1CC(=O)N2[C@H]3c4cc(Br)ccc4OC[C@@H]3[C@H](C(=O)OCC)[C@]2(C)C1=O -9%
Cc1ccc2cc(C#N)c(N3CCN(C(=O)c4ccccc4)CC3)nc2c1 28.6%
O=C(O)c1ccccc1NS(=O)(=O)c1cccc(N=Nc2c(O)[nH]c(=S)[nH]c2=O)c1 -23.4%
CC(C)(C)c1ccc(-c2nc(C#N)c(NCCCn3ccnc3)o2)cc1 3.34%
COc1ccc(/C=N/Nc2ncc(Br)cn2)c(OC)c1 2.01%
CC(Sc1nc2ccccc2s1)C(=O)N(C)Cc1ccccc1 (centres undefined) -7.13%
Cc1ccc(C(=O)N/N=C/c2cc(Br)ccc2O)cn1 0.406%
CCOc1ccccc1N(CC(=O)NC(C)(C)C)C(=O)Cn1nnc(-c2ccc(C)o2)n1 12.6%
CC1CCc2sc(-c3n[nH]c(=S)o3)cc2C1 (centres undefined) -4.97%
O=C(NNC(=O)c1ccc(Br)s1)c1cccc(Cl)c1 -14.8%
C[C@H]1CN([C@@H](C)CO)C(=O)CCCn2nncc2CO[C@@H]1CN(C)S(=O)(=O)c1cccc(C#N)c1 12.3%
CC1=Nc2cc(C(=O)NCCN3CCOCC3)ccc2Sc2c(C)ccc(C)c21 -0.882%
COc1ccccc1NC(=O)/C(=C/c1cccc([N+](=O)[O-])c1)c1ccccc1 0%
O=C(/C=C/c1ccccc1)Nc1cccnc1 -19.4%
COc1ccc2c3c([nH]c2c1)C1CC2C(CC(O)C(OC)C2C(=O)O)CN1CC3 (centres undefined) 0%
Cc1ccc(S(=O)(=O)N2CCC(=O)N([C@H](COCc3ccccc3)Cc3ccccc3)CC2)cc1 -4.09%
CCOC(=O)c1ccc(NC(=O)COc2cc3oc(=O)c(CC(C)O)c(C)c3cc2Cl)cc1 (centres undefined) 4.86%

No new results follow: four of the compounds above.
Max response, negative = inhibition, inactive:
COc1ccccc1CCNC(=O)C1CC(=O)N(c2ccccc2F)C1 (centres undefined) 20.4%
N#CC1(NC(=O)COc2ccc3ccc(=O)oc3c2)CCCCC1 3.96%
CCCCN1CC(=O)N2[C@H]3c4cc(Br)ccc4OC[C@@H]3[C@H](C(=O)OCC)[C@]2(C)C1=O -9%
Cc1ccc2cc(C#N)c(N3CCN(C(=O)c4ccccc4)CC3)nc2c1 28.6%

Following part.

Max response, negative = inhibition, inconclusive:
CCCC(=O)Nc1ccc(C(=O)n2nnc3ccccc32)cc1 -43.7%
COc1ccc(C(=O)C2CCCN(Cc3ccc4nonc4c3)C2)c(C)c1 (centres undefined) -40.4%
COc1cc(/C=C/C(=O)c2ccc(C)c([N+](=O)[O-])c2)cc(OC)c1O -38.4%
COC(=O)c1c(NC(=O)Cc2ccccc2)sc2c1CC(C)(C)NC2(C)C -37.7%
CCOc1ccc(C(=O)Nc2cccc(-c3nc4ccccc4[nH]3)c2C)cc1[N+](=O)[O-] -35.4%
COc1ccc(CNC(=O)C(=O)NCC2CCCO2)cc1 (centres undefined) -41.5%
CC(C(=O)Nc1ccc(S(=O)(=O)N2CCCC2)cc1)N1CCc2ccccc2C1 (centres undefined) -40.8%
COc1cc(/C=C2\SC(=S)N(N3CCOCC3)C2=O)ccc1O -31.1%
c1ccc(C2=NC(c3ccccc3)N=C(c3ccccc3)N2)cc1 -39.1%
CCN(CC)CCNC(=O)c1ccc(NC(=O)/C=C/c2ccc3ccccc3n2)cc1 -50%
CC[C@]12c3[nH]c4ccc(OC)cc4c3CCN1C(=O)C(CC(=O)NC/C=C(\C)CCC=C(C)C)C[C@@H]2C(=O)N1CCN(C(=O)C2CC2)CC1 (some centres undefined) -39.9%
c1ccc(-c2cnnc(-c3ccccn3)n2)cc1 -34.3%
CCc1nnc(NC(=O)CCC(=O)N2CCCC2)s1 -45.8%
CC(=O)N1CCN(C(=O)CCc2nc3sc4c(c3c(=O)[nH]2)CCCC4)CC1 -33.4%
Cc1ccccc1NC(=S)NC(NC(=O)c1ccccc1C)C(Cl)(Cl)Cl (centres undefined) -34.3%
O=[N+]([O-])c1cc(S(=O)(=O)Nc2ccccc2)ccc1N1CCN(c2ccccc2)CC1 -32.7%
CCC1CCCCN1CCCNC(=O)C1CCC(Cn2c(=O)[nH]c3ccccc3c2=O)CC1 (centres undefined) -44.6%
CC(=O)Nc1ccc2nc(-c3ccc(Br)o3)[nH]c2c1 -49%
CCOC(=O)C(C)Oc1c(Br)cc(C2NC(=O)NC(C)=C2C(C)=O)cc1OCC (centres undefined) -38.5%
c1ccc2c(c1)CCOC2CNCCCN1CCCCC1 (centres undefined) -31.7%
CCCn1c(=O)c(C(=O)NCc2cccnc2)c(O)c2ccccc21 -33%
Cc1ccc(C2OC34CCCCCC3C(C#N)(C(=N)O4)C2(C#N)C#N)cc1 (centres undefined) -40.1%
O=S(=O)(Nc1nc(-c2ccco2)c(-c2ccco2)s1)c1ccc(F)cc1F -30.7%
CCn1nc(C)c(CN2CCC(n3nccc3NC(=O)CCCc3ccccc3)CC2)c1C -38.8%
Cc1ccccc1OCCn1cc(C(=S)N2CCN(C)CC2)c2ccccc21 -48.8%
CCN1C(=O)[C@H]2[C@@H](c3ccc(-c4ccc(F)cc4)cc3)N[C@@](CC(C)C)(C(=O)OC)[C@H]2C1=O -44.1%
COC(=O)c1c(NC(=S)NN2CCN(C)CC2)sc2c1CCC(C)C2 (centres undefined) -35.3%
Cc1ccc(NC(=O)c2ccc3snnc3c2)cc1 -33.5%
CC1(C)CC(=O)C2=C(C1)Oc1nc3ccccc3cc1C2C(C#N)C#N (centres undefined) -49.2%
Oc1ccc(C2Nc3cccc4cccc(c34)N2)c(O)c1 -37.6%
O=C(OC1CCOC1=O)c1ccccc1C(=O)c1ccc(Cl)c([N+](=O)[O-])c1 (centres undefined) -47.8%
C=CC(=O)N1c2ccccc2Sc2ccc(NC(=O)OCC)cc21 -47.1%
CCNC(=O)CC1C(=O)N(c2ccccc2)C(=O)N1CCc1ccc(OC)c(OC)c1 (centres undefined) -37.5%
O=C1CC(O)(c2ccccc2)C(c2ccccc2)=C1c1ccccc1 (centres undefined) -46.8%
CC(C#N)Sc1ccc(S(=O)(=O)N(C)C2CCCCC2)cn1 (centres undefined) -37.9%
COC(=O)c1c(NC(=O)C2CCCCC2)sc2c1CCN(C(C)C)C2 -34.5%
CCOC(=O)C1=C2N(C)c3ccccc3N2CCC1=O -42%
Cc1ccc2c(c1)N(CCCC(=O)NCc1cccnc1)C(=O)CO2 -31.9%
C=CCOc1c(Br)cc(/C=C2\SC(=Nc3ccccc3)NC2=O)cc1OC -35%
COc1ccc([N+](=O)[O-])cc1NC(=O)C(C)Sc1ccc(C)cc1 (centres undefined) -42%
COc1ccccc1CCN1CCCC(CN(C)C(=O)c2ccc3nc[nH]c3c2)C1 (centres undefined) -40.8%
CN(C(=O)CSc1nnc(-c2ccco2)n1C)C1CCCCC1 -47.8%
C#CCOCCOCCOCCNc1nc(N2CCN(C(=O)CCCCCCCCCCNC(=O)Cn3cc(C[C@@H](C)O)nn3)CC2)nc(N2CCN(C(=O)CCCCCCCCCCNC(=O)[C@H](CCCCN)n3cc(C[C@@H](C)CC)nn3)CC2)n1 -41.7%
O=C(/C=C/c1ccc(OCCCF)cc1)N1CCN(Cc2ccccc2)CC1 -44.8%
